# Source: PubChem BioAssay AID504534 (National Center for Advancing Translational Sciences (NCATS), 2011)
# The inconclusive results got no clear call from the source; some entries with a clear call stand among them for comparison. Potencies of inconclusive entries are doubtful fits and often do not repeat. Activity calls are given as the source filed them. Calls come from the whole dose curve; as a rule, active = well fitted curve in the direction sought with a large enough effect; inconclusive = small, poorly fitted or top-dose-only effect, or another doubt; inactive = no such curve, though single readings can be large or run the other way.
# Experiment: Secondary Assay for Inhibitors of Human Cdc-like kinase 4 (Clk4): HEK-293 Cell Viability Assay;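 note: cytotoxic hits lower the ATP light signal so activity reflects loss of viability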
# Conditions: HEK-293 viability, ATP luminescence (CellTiter-Glo), 24/48 h; series mostly up to 46.1 µM
# Experimental: NIH Molecular Libraries Probe Production Centers Network [MLPCN] NIH Chemical Genomics Center [NCGC] MLPCN Grant: 1R03MH084827-01 Assay Submitter (PI): Tom Misteli NCGC Assay Overview: Cytotoxicity of the active compounds in the Clk4 screens was assessed using the CellTiter-Glo Luminescent Cell Viability Assay kit (Promega, USA) in the HEK-293 (ATCC) cell line. CellTiter-Glo measures the intracellular ATP present in metabolically active cells using Ultra-Glo as the luciferase to detect ATP levels. In brief, the luciferase in the buffer catalyzes the oxidation of luciferin to oxyluciferin and light which is dependent on ATP. […] Wells treated with various concentrations of cycloheximide (Sigma) and DMSO, and wells with media alone were used as positive and negative controls, respectively. […] [1] http://www.promega.com/tbs/tb288/tb288.pdf
# NCGC Assay Protocol Summary: HEK-293 cells were grown in a flask up to 80% confluence. Cells were trypsinized, washed, and resuspended in MEM Eagle + 10% FBS + 1% pen-strep media at a concentration of 120 cells/uL. Five uL/well of cell solution was dispensed into a 1536-well assay plates (Greiner, solid white medium-binding plates) with Aurora Discovery BioRAPTR Flying Reagent Dispenser (FRD; Beckton-Dickenson). Cells were pre-incubated at 37 degree Celsius, 5% CO2 for four hours. Compound and control solutions (23nL) were then transferred to the assay plate using the Kalypsys 1536-pin tool. Assay plates were re- incubated at 37 degree Celsius, 5% CO2. After 24 or 48 hours, five uL of CellTiter Glo detection reagent was added. Luminescence signal was read with Perkin Elmer ViewLux plate reader after 30 min room temperature incubation.
# Potency is the fitted concentration of half-maximal effect.
row,SMILES,Potency
1,Cc1ccc(CN(C)c2ncnc3ccc(-c4ccc(CO)o4)cc23)o1,active: 12.5 µM
2,FC1(F)Oc2ccc(-c3ccc4ncnc(NCc5cccs5)c4c3)cc2O1,"inconclusive: 19.9 µM [cytotoxic, partial curve, poor fit]"
3,OCc1ccc(-c2ccc3ncnc(N4CCOCC4)c3c2)o1,"inconclusive: 25 µM [cytotoxic, partial curve]"
4,Cc1csc(CNc2ncnc3ccc(-c4ccccc4Cl)cc23)c1,"inconclusive: 19.9 µM [cytotoxic, partial curve, poor fit]"
5,c1cncc(-c2ccc3ncnc(NCc4cccs4)c3c2)c1,"inconclusive: 1.25 µM [cytotoxic, partial curve]"
6,Cc1cccc(CNc2ncnc3ccc(-c4cccc(Cl)c4)cc23)c1,inactive
7,CN(Cc1nccs1)c1ncnc2ccc(-c3ccc4c(c3)OCO4)cc12,"inconclusive: 14.1 µM [cytotoxic, single point]"
8,CN1CCN(c2ncc3nc(-c4cn(C)c5ccccc45)c(=O)n(Cc4cccs4)c3n2)CC1,active: 8.88 µM
9,CCNC(=O)c1ccc(-c2ccc3ncnc(NCc4nccs4)c3c2)o1,inactive
10,Cc1nc(CN(C)c2ncnc3cc(-c4ccc5c(c4)OCO5)ccc23)cs1,"inconclusive: 19.9 µM [cytotoxic, single point]"
11,CN(CC1CCCCC1)c1ncnc2ccc(-c3ccc4c(c3)OCO4)cc12,"inconclusive: 22.3 µM [cytotoxic, partial curve, poor fit]"
12,Cc1cccc(CNc2ncnc3ccc(-c4ccccc4Cl)cc23)c1,inactive
13,c1c[nH]c(CNc2ncnc3ccc(-c4ccc5c(c4)OCO5)cc23)n1,"inconclusive: 19.9 µM [cytotoxic, partial curve, poor fit]"
14,Cc1nc(CNc2ncnc3ccc(-c4oc(-c5ccccc5)nc4C)cc23)cs1,"inconclusive: 22.3 µM [cytotoxic, single point]"
15,Cc1cccc(-c2ccc3ncnc(NCc4cccs4)c3c2)c1,"inconclusive: 28.1 µM [cytotoxic, single point]"
16,COc1cccc(-c2ccc3ncnc(NCc4cc(C)cs4)c3c2)c1,inactive
17,Cc1cccc(CNc2ncnc3ccc(-c4ccoc4)cc23)c1,inactive
18,c1cncc(-c2ccc3ncnc(NCc4ccc5c(c4)OCO5)c3c2)c1,inactive
19,CC(c1ccco1)N(C)c1ncnc2ccc(-c3ccc4c(c3)OCO4)cc12 (stereo unspecified),"inconclusive: 25 µM [cytotoxic, partial curve]"
20,c1nc(NCc2ccc3c(c2)OCO3)c2cc(-c3ccc4c(c3)OCCO4)ccc2n1,inactive
21,CN(CC1CCCCO1)c1ncnc2ccc(-c3ccc4c(c3)OCO4)cc12 (stereo unspecified),inactive
22,Cc1nc(CN(C)c2ncnc3ccc(-c4ccc5c(c4)OCO5)cc23)cs1,active: 28.1 µM
23,COc1cccc(Nc2ncc3nc(-c4cn(C)c5ccccc45)c(=O)n(CCC#N)c3n2)c1,active: 7.91 µM
24,Cc1nc(CSc2ncnc3ccc(-c4ccc5c(c4)OCO5)cc23)cs1,inactive
25,Cn1cc(-c2nc3cnc(N4CCNCC4)nc3n(Cc3ccc(F)cc3)c2=O)c2ccccc21,"inconclusive: 28.1 µM [cytotoxic, single point]"
26,c1csc(CNc2ncnc3ccc(-c4ccoc4)cc23)c1,"inconclusive: 15.8 µM [cytotoxic, partial curve, poor fit]"

# Look-ups from the results shown.
# In Potency, FC1(F)Oc2ccc(-c3ccc4ncnc(NCc5cccs5)c4c3)cc2O1 is entered as inconclusive: 19.9 µM [cytotoxic, partial curve, poor fit]
# In Potency, COc1cccc(Nc2ncc3nc(-c4cn(C)c5ccccc45)c(=O)n(CCC#N)c3n2)c1 is entered as active: 7.91 µM
